The list shows a part of the results.
Experiments:
Assay in all cases: log2 fold change, soluble protein after heating vs DMSO (PISA); higher = thermal stabilisation; K562 lysate, 10 uM; active = over 0.2 and 3.5 SD of the protein, either way, in both replicates (recomputed)
[1] = compound: CN1CC[C@H](c2c(O)cc(O)c3c(=O)cc(-c4ccccc4Cl)oc23)[C@H](O)C1 [alvocidib]
Summary of the method: (§1)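 Pellets of K562 cells were dounce-homogenised in PBS pH 7.4 with 1 mM MgCl2, and the crude extract was held at 1 mg/mL protein for a 30 min treatment with 10 μM compound. Aliquots were heated for 3 min over 48°C-58°C and pooled before NP-40 was added to 0.5% at 4°C. The supernatant from 21,000xg for 90 min was quantified by TMTpro 16plex LC-MS/MS with channel sums equalised. Values are reported from duplicates as log-two fold change in thermal stability relative to solvent controls.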

Protein sequences, listed by entry. Tags and fused reporters are not part of them. Lines headed by an entry give the natural chain unless they say otherwise; changes in a name come on top.
UniProt P13051, whole entry, looked up: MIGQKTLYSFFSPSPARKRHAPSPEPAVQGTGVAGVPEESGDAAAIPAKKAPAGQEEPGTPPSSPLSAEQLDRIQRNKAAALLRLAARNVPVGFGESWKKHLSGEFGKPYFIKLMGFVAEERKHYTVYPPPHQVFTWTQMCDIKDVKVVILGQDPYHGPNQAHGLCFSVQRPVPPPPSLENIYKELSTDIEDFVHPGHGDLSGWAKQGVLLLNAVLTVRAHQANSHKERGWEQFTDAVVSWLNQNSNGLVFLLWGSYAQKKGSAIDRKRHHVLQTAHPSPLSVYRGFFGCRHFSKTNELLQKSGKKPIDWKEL
UniProt Q9H867: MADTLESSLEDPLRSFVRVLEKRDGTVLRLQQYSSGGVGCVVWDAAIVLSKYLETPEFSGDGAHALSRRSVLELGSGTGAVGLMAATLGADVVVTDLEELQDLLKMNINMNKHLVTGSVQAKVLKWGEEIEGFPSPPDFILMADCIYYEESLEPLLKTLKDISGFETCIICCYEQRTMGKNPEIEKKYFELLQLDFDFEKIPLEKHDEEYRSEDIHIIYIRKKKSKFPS
UniProt O15240: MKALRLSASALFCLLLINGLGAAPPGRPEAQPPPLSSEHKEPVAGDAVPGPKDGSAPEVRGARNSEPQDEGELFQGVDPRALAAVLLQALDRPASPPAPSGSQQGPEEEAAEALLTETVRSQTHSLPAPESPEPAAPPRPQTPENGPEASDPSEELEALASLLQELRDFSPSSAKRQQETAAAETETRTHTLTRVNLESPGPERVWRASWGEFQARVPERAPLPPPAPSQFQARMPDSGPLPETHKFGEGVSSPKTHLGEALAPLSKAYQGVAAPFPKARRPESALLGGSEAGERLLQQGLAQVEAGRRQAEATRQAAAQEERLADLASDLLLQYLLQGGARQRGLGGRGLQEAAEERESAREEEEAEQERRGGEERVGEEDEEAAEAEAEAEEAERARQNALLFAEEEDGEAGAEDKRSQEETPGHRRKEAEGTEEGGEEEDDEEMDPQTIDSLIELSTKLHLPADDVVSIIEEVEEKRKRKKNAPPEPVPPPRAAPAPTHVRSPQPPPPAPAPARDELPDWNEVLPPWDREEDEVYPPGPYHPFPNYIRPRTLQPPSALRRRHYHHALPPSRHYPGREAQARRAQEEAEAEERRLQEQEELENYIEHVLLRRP
UniProt Q9NVE5: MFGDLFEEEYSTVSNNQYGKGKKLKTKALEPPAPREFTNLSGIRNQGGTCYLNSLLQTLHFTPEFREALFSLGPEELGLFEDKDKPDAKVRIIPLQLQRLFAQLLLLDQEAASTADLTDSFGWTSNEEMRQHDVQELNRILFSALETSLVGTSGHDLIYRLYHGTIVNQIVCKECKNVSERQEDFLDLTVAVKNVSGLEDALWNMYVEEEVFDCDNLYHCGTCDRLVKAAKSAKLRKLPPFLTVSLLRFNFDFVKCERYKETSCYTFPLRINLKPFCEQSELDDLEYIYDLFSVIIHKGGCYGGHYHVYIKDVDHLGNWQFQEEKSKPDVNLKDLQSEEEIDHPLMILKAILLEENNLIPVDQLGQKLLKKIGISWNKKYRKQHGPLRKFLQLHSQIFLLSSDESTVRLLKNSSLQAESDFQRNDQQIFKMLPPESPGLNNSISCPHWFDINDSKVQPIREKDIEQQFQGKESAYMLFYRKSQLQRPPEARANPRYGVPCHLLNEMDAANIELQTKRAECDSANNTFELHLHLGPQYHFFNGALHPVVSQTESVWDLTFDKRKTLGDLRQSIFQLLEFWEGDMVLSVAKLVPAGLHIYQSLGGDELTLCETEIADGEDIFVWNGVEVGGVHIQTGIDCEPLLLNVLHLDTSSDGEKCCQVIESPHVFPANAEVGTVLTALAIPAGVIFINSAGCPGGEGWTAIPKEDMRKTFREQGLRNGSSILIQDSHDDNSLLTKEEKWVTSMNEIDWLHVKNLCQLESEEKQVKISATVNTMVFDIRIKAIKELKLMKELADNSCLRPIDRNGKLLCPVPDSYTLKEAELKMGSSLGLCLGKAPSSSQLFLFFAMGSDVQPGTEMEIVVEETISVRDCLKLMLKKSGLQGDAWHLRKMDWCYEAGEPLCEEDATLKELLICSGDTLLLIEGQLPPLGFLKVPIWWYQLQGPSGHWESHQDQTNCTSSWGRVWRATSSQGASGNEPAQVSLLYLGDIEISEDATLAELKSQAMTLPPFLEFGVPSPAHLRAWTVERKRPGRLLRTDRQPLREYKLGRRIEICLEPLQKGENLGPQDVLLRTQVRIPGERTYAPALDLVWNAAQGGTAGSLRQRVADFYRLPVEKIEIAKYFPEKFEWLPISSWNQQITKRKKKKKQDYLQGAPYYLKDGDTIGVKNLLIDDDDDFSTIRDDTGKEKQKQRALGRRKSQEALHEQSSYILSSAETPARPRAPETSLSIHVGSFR
UniProt Q16739: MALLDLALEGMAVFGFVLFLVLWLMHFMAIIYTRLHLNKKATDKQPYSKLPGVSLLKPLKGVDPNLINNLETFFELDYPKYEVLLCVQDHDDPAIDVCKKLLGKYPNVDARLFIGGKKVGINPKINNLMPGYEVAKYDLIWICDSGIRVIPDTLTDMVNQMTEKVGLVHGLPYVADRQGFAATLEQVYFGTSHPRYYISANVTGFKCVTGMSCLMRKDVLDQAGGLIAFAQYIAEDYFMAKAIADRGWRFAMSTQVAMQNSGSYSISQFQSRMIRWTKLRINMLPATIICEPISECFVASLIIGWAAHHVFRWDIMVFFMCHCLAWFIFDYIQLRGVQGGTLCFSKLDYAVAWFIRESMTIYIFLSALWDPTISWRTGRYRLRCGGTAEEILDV
UniProt Q9Y3A2: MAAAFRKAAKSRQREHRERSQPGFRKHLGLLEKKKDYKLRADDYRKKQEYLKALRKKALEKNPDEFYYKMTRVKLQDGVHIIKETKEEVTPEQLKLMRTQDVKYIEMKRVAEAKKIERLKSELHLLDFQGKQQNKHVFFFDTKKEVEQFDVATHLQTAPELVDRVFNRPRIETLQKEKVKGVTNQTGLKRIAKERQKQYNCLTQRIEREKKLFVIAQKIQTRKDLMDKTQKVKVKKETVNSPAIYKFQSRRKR
UniProt P46939: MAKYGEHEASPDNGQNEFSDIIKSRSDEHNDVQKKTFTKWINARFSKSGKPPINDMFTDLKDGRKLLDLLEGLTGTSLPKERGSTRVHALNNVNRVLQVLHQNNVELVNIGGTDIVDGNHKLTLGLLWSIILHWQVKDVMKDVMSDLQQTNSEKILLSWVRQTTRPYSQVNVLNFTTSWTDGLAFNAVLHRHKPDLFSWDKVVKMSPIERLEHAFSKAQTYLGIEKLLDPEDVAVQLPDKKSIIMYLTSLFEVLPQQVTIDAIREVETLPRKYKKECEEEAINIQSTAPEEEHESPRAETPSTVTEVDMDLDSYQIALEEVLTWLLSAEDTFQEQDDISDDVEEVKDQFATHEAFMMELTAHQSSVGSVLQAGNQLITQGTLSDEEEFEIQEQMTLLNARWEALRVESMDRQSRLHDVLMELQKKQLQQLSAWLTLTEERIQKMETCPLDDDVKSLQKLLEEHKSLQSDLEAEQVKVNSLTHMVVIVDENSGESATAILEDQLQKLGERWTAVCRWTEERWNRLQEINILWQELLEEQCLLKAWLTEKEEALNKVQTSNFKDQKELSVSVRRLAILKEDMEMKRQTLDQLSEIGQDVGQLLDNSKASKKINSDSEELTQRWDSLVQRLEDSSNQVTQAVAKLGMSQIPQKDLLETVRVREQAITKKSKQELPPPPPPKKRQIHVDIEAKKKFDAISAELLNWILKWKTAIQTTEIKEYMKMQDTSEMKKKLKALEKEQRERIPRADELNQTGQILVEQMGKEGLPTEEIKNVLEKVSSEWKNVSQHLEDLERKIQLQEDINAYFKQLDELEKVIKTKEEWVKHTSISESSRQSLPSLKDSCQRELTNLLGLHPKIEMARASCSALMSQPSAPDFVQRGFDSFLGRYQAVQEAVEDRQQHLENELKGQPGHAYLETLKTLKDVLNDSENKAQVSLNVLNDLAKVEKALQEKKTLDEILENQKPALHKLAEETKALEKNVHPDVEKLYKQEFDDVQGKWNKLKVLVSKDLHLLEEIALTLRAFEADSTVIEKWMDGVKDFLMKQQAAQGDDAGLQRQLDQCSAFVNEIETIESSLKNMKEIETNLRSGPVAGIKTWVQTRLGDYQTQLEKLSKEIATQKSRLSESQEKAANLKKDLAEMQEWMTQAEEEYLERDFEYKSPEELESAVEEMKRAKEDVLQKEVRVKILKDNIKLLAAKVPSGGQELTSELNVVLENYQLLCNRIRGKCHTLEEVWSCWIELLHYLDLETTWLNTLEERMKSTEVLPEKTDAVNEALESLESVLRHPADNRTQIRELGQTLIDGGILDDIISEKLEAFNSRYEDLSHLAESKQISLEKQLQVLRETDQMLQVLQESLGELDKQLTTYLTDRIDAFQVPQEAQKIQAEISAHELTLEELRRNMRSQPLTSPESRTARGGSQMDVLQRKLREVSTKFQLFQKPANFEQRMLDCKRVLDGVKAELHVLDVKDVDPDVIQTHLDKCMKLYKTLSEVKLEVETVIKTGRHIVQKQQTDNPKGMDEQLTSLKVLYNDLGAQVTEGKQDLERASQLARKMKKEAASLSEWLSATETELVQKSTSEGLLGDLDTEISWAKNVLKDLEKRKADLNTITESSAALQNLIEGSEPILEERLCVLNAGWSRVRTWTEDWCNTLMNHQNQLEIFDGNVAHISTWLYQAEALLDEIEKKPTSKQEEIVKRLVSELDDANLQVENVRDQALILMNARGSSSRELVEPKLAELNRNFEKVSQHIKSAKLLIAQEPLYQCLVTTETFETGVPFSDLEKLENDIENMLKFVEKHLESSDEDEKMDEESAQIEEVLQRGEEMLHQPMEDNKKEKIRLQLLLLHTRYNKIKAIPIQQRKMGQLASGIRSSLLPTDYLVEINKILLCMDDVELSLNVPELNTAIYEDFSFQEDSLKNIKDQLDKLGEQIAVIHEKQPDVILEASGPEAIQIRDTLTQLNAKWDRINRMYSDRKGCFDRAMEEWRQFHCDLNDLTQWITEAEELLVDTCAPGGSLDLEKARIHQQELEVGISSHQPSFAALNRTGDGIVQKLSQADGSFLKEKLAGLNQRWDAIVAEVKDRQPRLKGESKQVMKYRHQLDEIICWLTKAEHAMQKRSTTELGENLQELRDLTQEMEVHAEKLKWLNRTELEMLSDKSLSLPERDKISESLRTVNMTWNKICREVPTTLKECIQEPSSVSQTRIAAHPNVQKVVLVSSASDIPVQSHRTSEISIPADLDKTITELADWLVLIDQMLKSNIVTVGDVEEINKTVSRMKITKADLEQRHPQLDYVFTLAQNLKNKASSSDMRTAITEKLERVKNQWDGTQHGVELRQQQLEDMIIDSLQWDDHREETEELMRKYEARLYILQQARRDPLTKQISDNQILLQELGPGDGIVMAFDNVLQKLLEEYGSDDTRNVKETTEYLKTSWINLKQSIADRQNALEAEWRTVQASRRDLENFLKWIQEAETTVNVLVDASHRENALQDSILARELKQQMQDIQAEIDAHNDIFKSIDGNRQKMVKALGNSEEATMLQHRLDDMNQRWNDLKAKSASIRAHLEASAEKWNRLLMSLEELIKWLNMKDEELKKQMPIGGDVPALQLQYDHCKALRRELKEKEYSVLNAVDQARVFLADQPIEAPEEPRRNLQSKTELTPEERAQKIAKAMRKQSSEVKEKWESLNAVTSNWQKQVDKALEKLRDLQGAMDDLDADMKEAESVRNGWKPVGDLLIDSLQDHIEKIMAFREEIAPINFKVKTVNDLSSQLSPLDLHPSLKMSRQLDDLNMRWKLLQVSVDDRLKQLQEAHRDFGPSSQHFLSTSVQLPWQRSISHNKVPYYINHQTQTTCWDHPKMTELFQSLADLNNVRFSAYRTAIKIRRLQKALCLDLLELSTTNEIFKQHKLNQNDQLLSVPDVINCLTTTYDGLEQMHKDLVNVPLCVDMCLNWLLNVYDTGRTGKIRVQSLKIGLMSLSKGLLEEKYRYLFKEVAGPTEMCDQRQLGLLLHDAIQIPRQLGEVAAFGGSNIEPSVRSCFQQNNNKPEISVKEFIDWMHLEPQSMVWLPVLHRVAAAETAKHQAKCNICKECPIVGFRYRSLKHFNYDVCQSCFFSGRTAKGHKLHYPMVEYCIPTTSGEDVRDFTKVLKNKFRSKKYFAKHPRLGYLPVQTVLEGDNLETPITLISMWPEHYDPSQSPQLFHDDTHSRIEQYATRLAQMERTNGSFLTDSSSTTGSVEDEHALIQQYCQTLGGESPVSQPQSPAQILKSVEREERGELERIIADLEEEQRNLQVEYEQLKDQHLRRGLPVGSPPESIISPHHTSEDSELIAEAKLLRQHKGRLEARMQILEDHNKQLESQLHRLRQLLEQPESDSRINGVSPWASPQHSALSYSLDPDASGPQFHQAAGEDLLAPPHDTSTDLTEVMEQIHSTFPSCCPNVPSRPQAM

[2] = compound: CN1CCc2c(c3ccccc3n2Cc2ccc(C(=O)NO)cc2)C1 [Tubastatin A]
Summary of the method: as §1

[3] = compound: CNC(=O)C1=CC=CC=C1NC2=NC(=NC=C2Cl)NC3=C(C=C(C=C3)N4CCOCC4)OC
Summary of the method: as §1

[4] = compound: CNc1nc(-c2ccc3c(N)n[nH]c3c2)cc(N2C[C@@H](C(=O)NC3CCCCC3)CC[C@H]2C)n1
Summary of the method: as §1

[5] = compound: COc1cc2nc(-c3cc(F)ccc3O)nc(N[C@@H]3CNC[C@H]3C(C)(C)O)c2cc1OC
Summary of the method: as §1

[6] = compound: CNC(=O)c1ccc(Nc2ncc(C(F)(F)F)c(NCc3nccnc3N(C)S(C)(=O)=O)n2)cc1 [defactinib]
Summary of the method: as §1

[7] = compound: COC(=O)N[C@@H](C)CNc1nccc(-c2cn(C(C)C)nc2-c2cc(Cl)cc(NS(C)(=O)=O)c2F)n1 [encorafenib]
Summary of the method: as §1

[8] = compound: COC(=O)[C@H](CCSC)NC(=O)C1=C(C=C(C=C1)NC[C@H](CS)N)C2=CC=CC=C2
Summary of the method: as §1

[9] = compound: COc1cc(Nc2ncc3c(n2)-c2ccc(Cl)cc2C(c2c(F)cccc2OC)=NC3)ccc1C(=O)O [alisertib]
Summary of the method: as §1

[10] = compound: COc1cc2ncnc(Nc3ccc(F)c(Cl)c3)c2cc1OCCCN1CCOCC1 [gefitinib]
Summary of the method: as §1

Measured: log2 fold change

UTP23 (UniProt Q9BRU9)
inactive: [1] -0.112 | [2] -0.065 | [3] 0.169 | [4] -0.018 | [5] 0.066

VBP1 (UniProt P61758)
inactive: [1] 0.022 | [2] 0.009 | [3] -0.008 | [6] -0.034 | [4] -0.02 | [7] -0.019 | [8] -0.061 | [9] -0.013 | [5] -0.023 | [10] 0.064

UQCRFS1 (UniProt P47985)
inactive: [1] 0.005 | [2] 0.023 | [3] -0.011 | [6] -0.021 | [4] 0.033 | [7] -0.01 | [8] -0.081 | [9] 0.001 | [5] -0.015 | [10] -0.006

UNG (UniProt P13051)
inactive: [1] 0.025 | [2] -0.1 | [3] -0.064 | [4] -0.193 | [7] -0.046 | [8] -0.114

VGLL4 isoform 4 (UniProt Q14135)
inactive: [1] 0.001 | [2] 0.024 | [3] 0.124 | [4] 0.05 | [9] 0.011 | [10] 0.028

VEZT (UniProt F8W8C2)
inactive: [1] 0.002 | [2] -0.123 | [3] 0.001 | [6] 0.116 | [7] 0.065 | [8] 0.098 | [5] -0.06

UTP4 (UniProt Q969X6)
inactive: [1] -0.015 | [2] 0.002 | [3] 0.012 | [6] 0.01 | [4] -0.002 | [7] 0.085 | [8] 0 | [9] 0.034 | [5] -0.005 | [10] -0.029

UGGT2 (UniProt Q9NYU1)
inactive: [1] 0.01 | [2] 0.004 | [3] 0.033 | [6] -0.025 | [4] 0.01 | [7] 0.019 | [8] 0 | [9] -0.019 | [5] 0.028 | [10] 0.017

VIL1 (UniProt P09327)
inactive: [1] 0.077 | [2] -0.058 | [3] 0.15 | [6] -0.087 | [4] 0.184 | [7] 0.029 | [8] 0.151 | [5] 0.071

USP20 (UniProt Q9Y2K6)
inactive: [2] 0.076 | [3] 0.041 | [4] -0.004 | [7] -0.055 | [8] -0.07

UQCRB (UniProt E5RHG9)
inactive: [4] -0.039

USP36 (UniProt Q9P275)
inactive: [1] 0.069 | [2] -0.065 | [6] -0.245 | [7] -0.028 | [8] 0.023 | [9] 0.046 | [5] 0.112 | [10] 0.212

VAV2 (UniProt P52735)
inactive: [6] -0.089 | [4] 0.179 | [5] 0.137

USP27X (UniProt A6NNY8)
inactive: [2] -0.037

USP7 (UniProt H3BND8)
inactive: [9] -0.154 | [5] 0.053 | [10] 0.089

UROD (UniProt H0Y5R6)
inactive: [2] 0.218 | [6] -0.316 | [7] -0.103 | [8] -0.06 | [5] -0.025

USP33 (UniProt Q8TEY7)
inactive: [1] 0.127 | [2] -0.202 | [4] 0.036 | [9] -0.054 | [10] -0.154

USP15 isoform 3 (UniProt Q9Y4E8)
inactive: [4] 0.043 | [5] 0.044

UNC119 (UniProt Q13432)
inactive: [2] 0.109 | [3] -0.15 | [4] 0.127 | [9] 0.047 | [10] 0.004

USP19 isoform 4 (UniProt O94966)
inactive: [2] 0.176 | [3] 0.013 | [6] -0.036 | [4] -0.063 | [7] 0.013 | [8] 0 | [5] 0.153

UHRF2 (UniProt Q96PU4)
inactive: [6] -0.034

ULK3 isoform 4 (UniProt Q6PHR2)
inactive: [1] -0.014 | [3] 0.004 | [6] 0.039 | [4] 0.016 | [7] -0.089 | [8] -0.061 | [5] 0.089

VCPKMT (UniProt Q9H867)
inactive: [3] 0.09

UCP2 (UniProt P55851)
inactive: [2] 0.182 | [6] 0.096 | [9] 0.033 | [10] 0.045

Two entries drawn at random from those above:
USP15 isoform 3 (UniProt Q9Y4E8)
inactive: [4] 0.043 | [5] 0.044

USP20 (UniProt Q9Y2K6)
inactive: [2] 0.076 | [3] 0.041 | [4] -0.004 | [7] -0.055 | [8] -0.07

More results.

USP37 (UniProt Q86T82)
inactive: [6] -0.013 | [7] 0.013 | [8] 0.11

VASN (UniProt Q6EMK4)
inactive: [2] -0.161 | [3] -0.087 | [4] 0.096 | [7] 0.2 | [8] 0.02

URGCP (UniProt Q8TCY9)
inactive: [2] 0.168 | [6] -0.19 | [4] -0.005 | [9] 0.003 | [10] 0.006

VGF (UniProt O15240)
inactive: [3] 0.341 | [6] -0.084 | [4] 0.005 | [7] -0.065 | [8] -0.103

USP40 isoform 3 (UniProt Q9NVE5)
inactive: [2] 0.009 | [3] 0.016 | [4] -0.055 | [9] -0.07 | [10] -0.026

UNC13A (UniProt Q9UPW8)
inactive: [1] -0.643 | [3] -0.11 | [9] -0.067 | [10] -0.076

UGCG (UniProt Q16739)
inactive: [2] 0.081 | [3] 0.047 | [6] -0.158 | [4] -0.161 | [9] 0.051 | [10] 0.122

USP5 (UniProt F5H571)
inactive: [9] -0.282 | [5] 0.058 | [10] -0.005

UMAD1 (UniProt C9J7I0)
inactive: [1] 0.112 | [2] -0.012 | [4] 0.104 | [9] 0.112 | [5] -0.361 | [10] -0.332

USP38 (UniProt Q8NB14)
inactive: [1] -0.052 | [2] -0.149 | [6] 0.193 | [4] -0.026 | [7] 0.129 | [8] -0.103 | [9] -0.068 | [5] -0.032 | [10] 0.037

UNC13B isoform 2 (UniProt O14795)
inactive: [2] -0.033 | [3] 0.1 | [6] -0.002 | [4] -0.238 | [7] 0.265 | [8] 0.082 | [9] -0.018 | [5] 0.043 | [10] 0.011

USP42 (UniProt Q9H9J4)
inactive: [7] 0.08 | [8] 0.264 | [9] -0.018 | [5] -0.023 | [10] -0.018

USP46 (UniProt P62068)
inactive: [5] -0.051

USP6NL isoform 2 (UniProt Q92738)
inactive: [1] -0.001 | [6] 0.165 | [7] 0.014 | [8] 0.078 | [9] -0.022 | [5] -0.027 | [10] -0.104

UTP11 (UniProt Q9Y3A2)
inactive: [1] -0.08 | [6] -0.042 | [4] 0.043 | [7] -0.159 | [8] -0.234 | [9] 0.06 | [5] -0.049 | [10] 0.049

UNKL (UniProt E9PDK2)
inactive: [6] -0.008 | [4] -0.042 | [7] 0.044 | [8] 0.106

UTRN isoform 2 (UniProt P46939)
inactive: [1] -0.084 | [3] -0.166 | [7] -0.012 | [8] -0.037

USF3 (UniProt Q68DE3)
inactive: [3] -0.105 | [7] 0.079 | [8] -0.1 | [5] 0.047

From the supplement of paper PMC10849652
